Source: PubChem BioAssay AID588590 (National Center for Advancing Translational Sciences (NCATS), 2011)
The campaign covered roughly 390,000 compounds. About 4,000 (1%) were called active. The shares of active, inactive and inconclusive entries below differ from those in the screen. The call rests on the fitted dose curve; in most records, active means well fitted inhibition curve with a large enough effect; inconclusive means small, poorly fitted or top-dose-only effect, or another doubt; inactive means no such curve, though single readings can be large or run the other way. Potencies of inconclusive entries are doubtful fits and often do not repeat.

Sequences of proteins named here, by UniProt entry; tags and fusion partners are left off. A change or cut given only in a name is not applied to a line headed by its entry.
UniProt Q9UNA4: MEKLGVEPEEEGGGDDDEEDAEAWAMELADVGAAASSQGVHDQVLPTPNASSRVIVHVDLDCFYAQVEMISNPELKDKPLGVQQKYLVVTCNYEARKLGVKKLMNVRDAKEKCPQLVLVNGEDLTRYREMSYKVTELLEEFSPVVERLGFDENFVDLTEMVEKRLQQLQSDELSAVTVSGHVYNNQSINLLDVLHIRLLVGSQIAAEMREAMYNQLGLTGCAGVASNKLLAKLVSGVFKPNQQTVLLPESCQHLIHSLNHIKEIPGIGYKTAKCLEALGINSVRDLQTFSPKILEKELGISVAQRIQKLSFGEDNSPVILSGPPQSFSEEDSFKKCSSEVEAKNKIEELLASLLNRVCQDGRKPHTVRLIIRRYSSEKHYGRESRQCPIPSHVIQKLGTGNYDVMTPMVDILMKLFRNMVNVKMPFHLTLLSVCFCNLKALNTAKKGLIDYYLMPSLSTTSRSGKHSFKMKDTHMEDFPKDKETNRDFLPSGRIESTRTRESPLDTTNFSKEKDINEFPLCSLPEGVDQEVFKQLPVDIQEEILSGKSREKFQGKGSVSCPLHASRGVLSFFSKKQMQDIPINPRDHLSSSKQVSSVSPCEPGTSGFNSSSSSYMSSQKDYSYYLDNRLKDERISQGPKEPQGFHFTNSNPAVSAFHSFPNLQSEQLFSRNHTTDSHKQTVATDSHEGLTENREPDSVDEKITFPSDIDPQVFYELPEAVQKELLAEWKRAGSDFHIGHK

These compounds were tested against DNA polymerase iota (Homo sapiens) (UniProt Q9UNA4) (assay: qHTS for Inhibitors of Polymerase Iota). Conditions: Pol iota fluorescent replication assay, 10 min; series mostly up to 115 µM.
How it was run: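 Fluorescent replication assay read twice, at 0 min and 10 min after adding 50 nM (final) substrate. Enzyme (10 nM) and compounds were first incubated 15 min at room temperature; enzyme-free buffer wells were negative controls.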
Potency means the concentration at half of the fitted maximal effect.

SMILES | Potency
CCn1cc(C(=O)O)c(=O)c2cc(F)c(N3CCN(C(=S)NC(=O)c4cc(OC)cc(OC)c4)CC3)cc21 | inconclusive: 44.7 µM [inhibitor, partial curve, poor fit]
CCCCNC(=O)c1cc2c(=O)n3cccc(C)c3nc2s1 | inactive
COc1cc(C(=O)NCC(=O)OCC(=O)c2ccc[nH]2)cc(OC)c1OC | inconclusive: 22.4 µM [inhibitor, single point]
O=C(c1coc(=O)c(Br)c1)N1CCCc2ccccc21 | active: 15.8 µM
O=C(O)CSc1nnc(SCc2cccc3ccccc23)s1 | inactive
O=C(N/N=C/c1ccccc1Cl)c1nc2ccc([N+](=O)[O-])cc2c(=O)[nH]1 | active: 10 µM
Cc1cccc(NNC(N)=S)c1 | inconclusive: 3.55 µM [inhibitor, full curve, poor fit]
Cc1ccc(NC2CCCN(C(=O)c3cn(C)c4ccccc34)C2)cc1C (stereo not given) | inconclusive: 89.1 µM [inhibitor, single point]
Cc1cc(NC(=O)c2cc3ccccc3o2)no1 | inconclusive: 20 µM [inhibitor, partial curve]
Cc1oc(-c2ccc(F)cc2)cc1-c1nn2c(-c3ccoc3C)nnc2s1 | active: 7.94 µM
Cc1ccc(C)c(S(=O)(=O)N2CCN(C(=O)c3cccnc3)CC2)c1 | inactive
CNC(=S)Nc1cc(S(=O)(=O)Nc2cc(Cl)ccc2Cl)ccc1N1CCCC1 | inconclusive: 31.6 µM [inhibitor, partial curve]
Cc1nc2ccccc2cc1C(=O)O | inactive
CCCN(CC(=O)Nc1ccccc1C)C(=O)/C=C/c1ccc(OCC)c(OC)c1 | inconclusive: 1.58 µM [inhibitor, full curve, poor fit]
CN1C(=O)c2ccccc2Sc2ccc(NC(=O)Cc3c(F)cccc3Cl)cc21 | inconclusive: 89.1 µM [inhibitor, single point]
Cc1ccc(S(=O)(=O)N2CCN(C(=O)CN3CCOCC3)C2c2ccccc2)cc1 (stereo not given) | inconclusive: 112 µM [inhibitor, single point]
O=C1/C(=C/c2ccc(Br)cc2)Oc2cc(O)ccc21 | inactive
Cc1ccc(C(=O)/C=C/Nc2ccc(S(=O)(=O)Nc3cc(C)nc(C)n3)cc2)cc1 | inconclusive: 79.4 µM [inhibitor, partial curve]
O=C(c1cccs1)N1CCN(S(=O)(=O)N2CCOCC2)CC1 | inactive
Cc1sc2ccccc2[n+]1CCCCBr | inconclusive: 89.1 µM [inhibitor, single point]
O=c1cc(-c2ccc(O)cc2)oc2c(C3OCC(O)C(O)C3O)c(O)c(C3OC(CO)C(O)C(O)C3O)c(O)c12 (stereo not given) | inconclusive: 22.4 µM [inhibitor, partial curve, poor fit]
O=C1c2cccc(NCCCNCCO)c2C(=O)c2cccc(NCCCNCCO)c21 | active: 44.7 µM

SMILES | Potency
O=C1c2ccc(Oc3cccc([N+](=O)[O-])c3)cc2C(=O)N1c1ccccn1 | inactive
CCOC(=O)c1cccc(NC(=O)C2CCCN(c3nnc(N4CCCC4=O)s3)C2)c1 (stereo not given) | inconclusive: 50.1 µM [inhibitor, single point]
COc1ccc2[nH]c(C(=O)N/N=C/c3cc(OC)c(OC)c(OC)c3)cc2c1 | active: 17.8 µM
Cc1ccc(NC(=O)Nc2nnc(Cc3ccc([N+](=O)[O-])cc3)s2)cc1 | inconclusive: 10 µM [inhibitor, partial curve, poor fit]
CCN(c1ccc(OC)cc1)S(=O)(=O)c1nnc(NC(=O)COc2ccc(F)cc2)s1 | inconclusive: 22.4 µM [inhibitor, partial curve, poor fit]
Brc1c(OCCOCCn2cncn2)ccc2ccccc12 | inconclusive: 35.5 µM [inhibitor, single point]
O=C(Nc1ccccc1-c1ccccc1)c1ccccc1 | inactive
CNc1ccc(Br)cc(C(=O)/C=C/c2ccc(OC)cc2)c1=O | inconclusive: 8.91 µM [inhibitor, partial curve, poor fit]
COc1cccc(C(=O)Nc2cccc3c2ccc2cccn23)c1 | inconclusive: 12.6 µM [inhibitor, full curve, poor fit]
C/C=C/c1ccc(OCCCCn2cncn2)c(OC)c1 | inconclusive: 112 µM [inhibitor, single point]
Cc1cccc(-c2nc(SCC(=O)NCC3CCCO3)c3c(=O)n(C)c(=O)n(C)c3n2)c1 (stereo not given) | inactive
O=c1cc2c(nn1Cc1cccc(Cl)c1)-c1ccccc1CC2 | inconclusive: 39.8 µM [inhibitor, single point]
CC(C)(C)C(=O)NC(NC(=S)Nc1sc2c(c1C#N)CCCC2)C(Cl)(Cl)Cl (stereo not given) | inconclusive: 12.6 µM [inhibitor, partial curve, poor fit]
O=C(COC(=O)Cc1ccc(F)cc1)NCc1ccco1 | inconclusive: 39.8 µM [inhibitor, partial curve, poor fit]
O=C(/C=C/c1ccccc1)CCN1CCOCC1 | inconclusive: 31.6 µM [inhibitor, partial curve, poor fit]
CN1CCN(CCCCC(=O)c2ccccc2)CC1 | inconclusive: 126 µM [inhibitor, partial curve, poor fit]
O=C(O)c1cccc2c1C(=O)c1ccccc1C2=O | inactive
Cc1ccc(-c2csc3ncnc(OCC(=O)NC(=O)NCc4ccco4)c23)cc1 | inconclusive: 20 µM [inhibitor, full curve, poor fit]
FC(F)(F)c1ccccc1NC(=S)NN=C1CCCCCC1 | inconclusive: 39.8 µM [inhibitor, partial curve, poor fit]
N#Cc1c2c(c(Nc3ccc(O)cc3)n3c1nc1ccccc13)CCC2 | inconclusive: 22.4 µM [inhibitor, single point]
CC(C)CN(C(=O)COC(=O)C12CC3CC(CC(C3)C1)C2)c1c(N)n(Cc2ccccc2)c(=O)[nH]c1=O | inconclusive: 89.1 µM [inhibitor, single point]
O=C(Nc1ccccc1NC(=O)NC1CCCCC1)NC1CCCCC1 | inconclusive: 100 µM [inhibitor, single point]

SMILES | Potency
Cc1ccc(-c2csc(NC(=O)c3ccc(-c4ccccc4)cc3)n2)o1 | inconclusive: 44.7 µM [inhibitor, partial curve]
CCN(C[C@H]1N[C@@](CC)(C(=O)OC)[C@H]2C(=O)N(C)C(=O)[C@@H]12)C(=O)COc1ccccc1 | inconclusive: 31.6 µM [inhibitor, full curve]
COc1ccc(S(=O)(=O)NCc2ccccn2)cc1NC(=O)c1ccccc1F | inconclusive: 35.5 µM [inhibitor, partial curve, poor fit]
COc1ccccc1-c1noc(-c2ccc(N(C)Cc3ccccc3)c([N+](=O)[O-])c2)n1 | inconclusive: 79.4 µM [inhibitor, partial curve, poor fit]
CCCN(C(=O)c1cc(-c2ccco2)nc2ccccc12)c1c(N)n(Cc2ccccc2)c(=O)[nH]c1=O | active: 20 µM
COc1ccc(CN(Cc2ccccc2)C(=O)COC(C)=O)cc1COc1ccc(NC(C)=O)cc1 | inconclusive: 12.6 µM [inhibitor, partial curve, poor fit]
O=C(NC1CCCc2ccccc21)C1CCN(c2nnc(-n3cccc3)s2)CC1 (stereo not given) | inconclusive: 50.1 µM [inhibitor, partial curve, poor fit]
Cc1cc(/C=C2\SC(=S)NC2=O)cc(C)c1O | inconclusive: 50.1 µM [inhibitor, partial curve, poor fit]
C=C(C)CN(CC)CCC(=O)Nc1ccc(OC)cc1OC | inconclusive: 20 µM [inhibitor, single point]
COc1cc(/C=C2/C(=O)NN(c3cccc(Cl)c3)C2=O)cc(Br)c1O | inconclusive: 12.6 µM [inhibitor, partial curve, poor fit]
Nc1nonc1C(=O)N/N=C/c1cc2c(cc1[N+](=O)[O-])OCO2 | inconclusive: 10 µM [inhibitor, full curve]
COc1ccc(/C=C/C(=O)c2cc(Br)ccc(=O)c2O)cc1 | active: 2.51 µM
CC(=O)Nc1cccc(-c2cnc(N)c(C(=O)c3cccnc3)n2)c1 | inconclusive: 22.4 µM [inhibitor, partial curve, poor fit]
CCOC(=O)Nc1ccc(C)cc1C | inconclusive: 89.1 µM [inhibitor, single point]
CNc1ccc(/C=C2\C=Cc3ccccc32)cc1I | inactive
COc1ccc2ccccc2c1/C=N/Nc1ccc(Cl)c(C(=O)O)c1 | inconclusive: 15.8 µM [inhibitor, partial curve, poor fit]
CN(C)c1ccc(-c2nnc(-c3ccc(S(=O)(=O)C(F)F)cc3)o2)cc1 | inconclusive: 39.8 µM [inhibitor, single point]
CCOc1ccc(CNCc2c(C(=O)O)c(C)n(Cc3ccc(F)cc3Cl)c2C)cc1 | inconclusive: 89.1 µM [inhibitor, single point]
O=C1C=CC(=O)N1c1ccc2c(c1)Cc1cc(F)ccc1-2 | inconclusive: 15.8 µM [inhibitor, partial curve, poor fit]
NC(=O)c1c(NC(=O)Cc2cccs2)sc2c1CCC2 | inconclusive: 31.6 µM [inhibitor, partial curve, poor fit]
Cc1cc(C)nc(SCc2cc(=O)c(OC(=O)c3ccc(Br)o3)co2)n1 | inconclusive: 39.8 µM [inhibitor, single point]

A run of entries from further up, as a working copy:
SMILES | Potency
CN1CCN(CCCCC(=O)c2ccccc2)CC1 | inconclusive: 126 µM [inhibitor, partial curve, poor fit]
O=C(O)c1cccc2c1C(=O)c1ccccc1C2=O | inactive
Cc1ccc(-c2csc3ncnc(OCC(=O)NC(=O)NCc4ccco4)c23)cc1 | inconclusive: 20 µM [inhibitor, full curve, poor fit]
FC(F)(F)c1ccccc1NC(=S)NN=C1CCCCCC1 | inconclusive: 39.8 µM [inhibitor, partial curve, poor fit]
